Values from PubChem BioAssay AID1224828 (NIAID, 2016).

- Aim: 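Regulators linking TLR4 signalling to p65 nuclear translocation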 (primary screen)
- System: mouse RAW264.7 G9 macrophage reporter cells (GFP-p65, Tnf promoter-mCherry)
- Reagents: siRNA pool against mouse genes, 100 nM
- Duration: 2 days siRNA transfection, then 40 min LPS before fixation
- Challenge: LPS (Salmonella minnesota R595) at 10 ng/ml
- Read-out: 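Imaged p65 nuclear translocation ratio, normalised to the plate median, converted to robust z-scores and averaged across two replicates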
- Scale: p65 translocation robust z-score: higher = more nuclear NF-kappaB p65 after LPS than the plate median; nuclear/cytoplasmic p65 ratio: higher = more nuclear NF-kappaB p65
- Call rule: 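Active if robust z is above 3.3 (negative regulators) or below -1.56, the Tlr4 control median (positive regulators); activity score 50 or more; control wells not called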
- Calls: active = hit (p65 shift raised or lowered); inactive = no clear change
Here is a random part of about 17,000 reagents. 762 of all reagents (4.5%) count as active. 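Active calls include both raised and lowered p65 entry, mostly lowered; wells with fewer than 50 cells lack a z-score.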 Raw values vary from plate to plate and are shown uncorrected. Unmarked entries are inactive.

Gene	p65 translocation robust z-score	nuclear/cytoplasmic p65 ratio, rep 1	nuclear/cytoplasmic p65 ratio, rep 2	low cell count flag
Get4 (golgi to ER traffic protein 4)	-0.61	1.4	1.42	enough cells to score
Khdc3 (KH domain containing 3, subcortical maternal complex member)		1.54	1.24	fewer than 50 cells per well; well left out of scoring
Lpcat3 (lysophosphatidylcholine acyltransferase 3)	-0.44	1.57	1.49	enough cells to score
Myh14 (myosin, heavy polypeptide 14)		1.18	1.01	fewer than 50 cells per well; well left out of scoring
Treh (trehalase (brush-border membrane glycoprotein))	0.72	1.4	1.32	enough cells to score
Abca15 (ATP-binding cassette, sub-family A member 15)	1.69	1.81	2	enough cells to score
Pxmp4 (peroxisomal membrane protein 4)	-0.09	1.35	1.22	enough cells to score
Srprb (signal recognition particle receptor, B subunit)		1.56	1.2	fewer than 50 cells per well; well left out of scoring
Lypd9 (LY6/PLAUR domain containing 9)		1.1	1.09	fewer than 50 cells per well; well left out of scoring
Bsx (brain specific homeobox)		1.17	1.97	fewer than 50 cells per well; well left out of scoring
Aldh3b2 (aldehyde dehydrogenase 3 family, member B2)	0.09	1.72	1.54	enough cells to score
Crh (corticotropin releasing hormone)	0.71	1.57	1.47	enough cells to score
Siglece (sialic acid binding Ig-like lectin E)	-0.63	1.29	1.21	enough cells to score
Mcpt1 (mast cell protease 1)	1.59	1.91	1.83	enough cells to score
Dpm1 (dolichyl-phosphate mannosyltransferase subunit 1, catalytic)	-0.57	1.39	1.31	enough cells to score
2310002L09Rik (RIKEN cDNA 2310002L09 gene)		1.23	1.16	fewer than 50 cells per well; well left out of scoring
Coq4 (coenzyme Q4)	-1.17	1.37	1.55	enough cells to score
Dnajb13 (DnaJ heat shock protein family (Hsp40) member B13)	0.3	1.42	1.47	enough cells to score
Zdhhc24 (zinc finger, DHHC domain containing 24)		1.66	1.29	fewer than 50 cells per well; well left out of scoring
Pdzrn3 (PDZ domain containing RING finger 3)		1.34	1.19	fewer than 50 cells per well; well left out of scoring
Zranb1 (zinc finger, RAN-binding domain containing 1)	-1.97 (active)	1.08	1.29	enough cells to score
Spag5 (sperm associated antigen 5)		1.38	1.26	fewer than 50 cells per well; well left out of scoring
Pkhd1l1 (polycystic kidney and hepatic disease 1-like 1)	-0.05	1.38	1.2	enough cells to score
Taar6 (trace amine-associated receptor 6)	0.82	1.6	1.72	enough cells to score

In a second layout: results already given
Pxmp4 (peroxisomal membrane protein 4) → p65 translocation robust z-score = -0.09; nuclear/cytoplasmic p65 ratio, rep 1 = 1.35; nuclear/cytoplasmic p65 ratio, rep 2 = 1.22; low cell count flag = enough cells to score
Srprb (signal recognition particle receptor, B subunit) → nuclear/cytoplasmic p65 ratio, rep 1 = 1.56; nuclear/cytoplasmic p65 ratio, rep 2 = 1.2; low cell count flag = fewer than 50 cells per well; well left out of scoring
Lypd9 (LY6/PLAUR domain containing 9) → nuclear/cytoplasmic p65 ratio, rep 1 = 1.1; nuclear/cytoplasmic p65 ratio, rep 2 = 1.09; low cell count flag = fewer than 50 cells per well; well left out of scoring
